# Reference: publication PMC7862700
# Only a part is listed here, and it is no random draw. At the low end of the ranking, values are background and their order means little.
# Target: T1, ELK3 (UniProt P41970)
# T1 sequence: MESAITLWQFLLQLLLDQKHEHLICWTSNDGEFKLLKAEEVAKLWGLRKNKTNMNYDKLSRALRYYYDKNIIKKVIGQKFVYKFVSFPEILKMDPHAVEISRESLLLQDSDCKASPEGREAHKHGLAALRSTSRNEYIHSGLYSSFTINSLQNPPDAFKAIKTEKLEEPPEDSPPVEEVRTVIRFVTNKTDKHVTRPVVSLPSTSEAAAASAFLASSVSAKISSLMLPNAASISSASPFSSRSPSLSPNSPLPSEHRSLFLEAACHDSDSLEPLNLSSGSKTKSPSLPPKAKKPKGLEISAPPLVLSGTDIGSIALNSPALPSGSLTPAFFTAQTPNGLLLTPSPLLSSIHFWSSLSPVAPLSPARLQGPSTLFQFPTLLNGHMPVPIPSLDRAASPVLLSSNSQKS
# Assay: DAPPL (digital affinity profiling via proximity ligation, sequencing)
# Details: 10 mM Tris-HCl pH 7.5, 50 mM NaCl, 1 mM DTT, 4% glycerol, room temperature, 30 min; GST-TFs on glutathione beads, 16-mer random dsDNA library, 0.1% …; high values mean tight binding; double strand, one strand shown; scale: fold enrichment (6-mer frequency, TF over GST control)
row,Sequence,binding signal
1,TCTATT,1.18
2,CATACG,1.12
3,TTCCGC,3.03
4,CGGTCT,1.18
5,GCTTCT,1.61
6,AGCAAC,0.995
7,TTGAGG,0.96
8,CGTCTG,1.05
9,CAACGC,0.923
10,TTGTTT,1.49
11,AAGAAG,1.05
12,GTATTG,1.08
13,TATGTG,0.989
14,TTCTAT,1.35
15,AATCAG,0.98
16,TAAACC,1.25
17,GTTCGC,0.994
18,AGCAAT,1.05
19,CCTAAG,1.17
20,CGATAG,1.11

row,Sequence,binding signal
1,CAAATC,1.01
2,CGTCAA,1.06
3,ATGGCG,1.01
4,TGCTCC,1.38
5,ACAATG,1.08
6,GCTCCC,1.18
7,GGCCTC,1.1
8,GCTGGT,1.19
9,AACCAC,1.29
10,TTATAA,1.33
11,CTACCA,1.16
12,CCTGCC,1.13
13,AGTAAT,1.12
14,TACACA,1.18
15,GCTGCG,1.04
16,ACAACA,1.19
17,CTAGCG,0.963
18,TACTGT,1.11
19,TGCCTA,0.878

# Target: T2, ETV3 (UniProt P41162-2)
# T2 sequence: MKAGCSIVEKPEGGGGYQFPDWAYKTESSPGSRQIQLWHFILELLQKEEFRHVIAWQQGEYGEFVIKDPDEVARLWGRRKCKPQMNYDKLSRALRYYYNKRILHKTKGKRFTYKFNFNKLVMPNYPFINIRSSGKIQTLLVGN
# Assay: as above
# Details: 10 mM Tris-HCl pH 7.5, 50 mM NaCl, 1 mM DTT, 4% glycerol, room temperature, 30 min; GST-TFs on glutathione beads, 16-mer random dsDNA library, 0.1% …; high values mean tight binding; double strand, one strand shown; scale: fold enrichment (6-mer frequency, TF over GST control)
row,Sequence,binding signal
1,TCTATT,1.25
2,CATACG,0.992
3,TTCCGC,3.37
4,GCTTCT,1.4
5,CGTCTG,0.995
6,CAACGC,1
7,TTGTTT,1.5
8,GTATTG,0.928
9,TTCTAT,1.33
10,AATCAG,1.07
11,GTTCGC,0.96
12,CCTAAG,1.06
13,CAAATC,0.999
14,ATGGCG,1.09
15,ACAATG,1.11
16,GCTCCC,1.21
17,CTACCA,1.21
18,GCTGCG,1.07
19,CTAGCG,1.15
20,TACTGT,1.13
